{"source": "patent US20090022788A1", "about": "“DIETARY SUPPLEMENT FOR HEALING OR REGRESSING SYMPTOMS OF GASTROESOPHAGEAL REFLUX DISEASE, GASTRITIS AND ULCERS” (priority 2006, published 2009)", "system": "chronic GERD, ulcer of 6 cm in the esophagus", "test": "case of a patient with chronic GERD and a 6 cm esophageal ulcer", "assay_type": "in vivo, human", "conditions": "earlier treatment prescribed by a gastroenterologist", "note": "At least one structure is not confirmed: it was looked up by name or label, or the drawing left a doubt.", "data": [{"smiles": "COc1ccc2[nH]c([S+]([O-])Cc3ncc(C)c(OC)c3C)nc2c1", "note": "(stereo not shown) [omeprazole, Omeprazole]", "values": [{"measurement": "relief of GERD symptoms (regurgitation, heartburn)", "value": "Neither treatment produced even partial relief"}]}]}
